Numbering of substitutions follows the chain as printed. These are yes or no findings as the source states them, for the method shown. Some binding calls cover weakened binding; strength is not graded here.
What was measured:
[1] = target: T1, Hairless (H) wild type, full-length pEG-H bait (Drosophila melanogaster) (UniProt Q02308); experiment: two-hybrid; Brent yeast two-hybrid; H wild type or H* mutants as LexA bait in pEG202; Su(H) as B42 prey in pJG4-5, Gro or CtBP as VP16 prey; lacZ reporter, blue colonies on X-Gal plates; empty vectors as control
T1 sequence: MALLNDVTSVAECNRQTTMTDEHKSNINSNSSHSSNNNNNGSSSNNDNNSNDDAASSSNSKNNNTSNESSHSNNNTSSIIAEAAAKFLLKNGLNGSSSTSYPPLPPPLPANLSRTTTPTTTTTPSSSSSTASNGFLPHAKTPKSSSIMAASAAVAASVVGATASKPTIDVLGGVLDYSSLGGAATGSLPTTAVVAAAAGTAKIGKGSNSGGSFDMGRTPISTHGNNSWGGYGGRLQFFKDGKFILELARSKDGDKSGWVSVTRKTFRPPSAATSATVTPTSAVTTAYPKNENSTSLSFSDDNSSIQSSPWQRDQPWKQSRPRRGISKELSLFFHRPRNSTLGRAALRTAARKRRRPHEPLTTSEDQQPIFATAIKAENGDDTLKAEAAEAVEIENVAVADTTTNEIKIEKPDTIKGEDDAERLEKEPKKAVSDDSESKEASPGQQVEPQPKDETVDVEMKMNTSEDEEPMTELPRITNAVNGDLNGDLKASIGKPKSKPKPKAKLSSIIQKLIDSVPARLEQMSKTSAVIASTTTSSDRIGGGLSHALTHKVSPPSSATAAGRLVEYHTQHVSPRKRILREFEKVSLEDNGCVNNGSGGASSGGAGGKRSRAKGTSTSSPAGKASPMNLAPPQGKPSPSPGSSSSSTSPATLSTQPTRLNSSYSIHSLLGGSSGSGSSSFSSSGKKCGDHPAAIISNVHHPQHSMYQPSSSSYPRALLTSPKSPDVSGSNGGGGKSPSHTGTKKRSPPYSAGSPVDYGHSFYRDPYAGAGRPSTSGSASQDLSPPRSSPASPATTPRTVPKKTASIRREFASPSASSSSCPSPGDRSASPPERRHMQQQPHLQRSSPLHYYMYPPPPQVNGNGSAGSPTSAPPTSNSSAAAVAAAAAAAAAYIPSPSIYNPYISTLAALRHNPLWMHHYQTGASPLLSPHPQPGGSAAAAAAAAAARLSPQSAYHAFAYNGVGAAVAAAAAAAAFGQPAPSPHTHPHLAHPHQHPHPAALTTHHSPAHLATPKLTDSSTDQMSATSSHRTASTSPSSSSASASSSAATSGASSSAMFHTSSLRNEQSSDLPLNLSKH

Protein sequences, listed by entry. Tags and fused reporters are not part of them.
UniProt O46036: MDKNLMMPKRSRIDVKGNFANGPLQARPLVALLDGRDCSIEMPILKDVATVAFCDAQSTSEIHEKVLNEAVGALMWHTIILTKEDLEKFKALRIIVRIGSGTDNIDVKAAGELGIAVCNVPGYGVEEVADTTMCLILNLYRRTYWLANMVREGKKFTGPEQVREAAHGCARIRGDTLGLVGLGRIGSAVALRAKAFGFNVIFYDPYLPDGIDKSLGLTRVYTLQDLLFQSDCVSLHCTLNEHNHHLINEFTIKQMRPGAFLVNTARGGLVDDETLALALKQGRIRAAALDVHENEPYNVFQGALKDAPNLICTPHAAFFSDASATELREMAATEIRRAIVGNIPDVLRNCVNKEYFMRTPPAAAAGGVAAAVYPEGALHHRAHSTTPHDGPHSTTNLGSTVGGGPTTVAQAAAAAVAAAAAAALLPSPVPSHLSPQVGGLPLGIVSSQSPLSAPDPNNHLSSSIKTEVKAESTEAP
UniProt P16371: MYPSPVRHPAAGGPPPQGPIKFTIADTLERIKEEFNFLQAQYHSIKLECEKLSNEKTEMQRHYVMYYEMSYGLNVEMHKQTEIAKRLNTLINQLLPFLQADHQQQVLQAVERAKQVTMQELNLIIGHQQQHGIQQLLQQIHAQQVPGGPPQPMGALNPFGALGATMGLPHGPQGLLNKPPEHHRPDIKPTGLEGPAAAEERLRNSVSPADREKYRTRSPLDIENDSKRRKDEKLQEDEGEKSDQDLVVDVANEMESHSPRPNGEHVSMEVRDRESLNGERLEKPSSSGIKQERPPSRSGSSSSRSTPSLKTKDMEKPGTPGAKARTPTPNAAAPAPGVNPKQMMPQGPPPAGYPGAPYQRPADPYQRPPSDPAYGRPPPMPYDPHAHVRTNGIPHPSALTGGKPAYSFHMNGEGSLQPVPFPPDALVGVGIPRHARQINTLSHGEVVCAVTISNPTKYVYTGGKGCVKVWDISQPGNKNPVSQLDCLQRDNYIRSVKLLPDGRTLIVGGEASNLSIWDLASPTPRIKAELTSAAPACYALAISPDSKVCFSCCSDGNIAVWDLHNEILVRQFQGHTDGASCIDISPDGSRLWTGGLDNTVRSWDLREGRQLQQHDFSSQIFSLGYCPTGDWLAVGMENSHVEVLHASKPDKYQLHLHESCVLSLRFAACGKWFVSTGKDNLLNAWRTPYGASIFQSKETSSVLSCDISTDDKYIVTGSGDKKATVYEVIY

[2] = target: T2, Hairless HdNT mutant, full-length pEG-HdNT bait (Drosophila melanogaster) (UniProt Q02308); experiment: as above
T2 sequence: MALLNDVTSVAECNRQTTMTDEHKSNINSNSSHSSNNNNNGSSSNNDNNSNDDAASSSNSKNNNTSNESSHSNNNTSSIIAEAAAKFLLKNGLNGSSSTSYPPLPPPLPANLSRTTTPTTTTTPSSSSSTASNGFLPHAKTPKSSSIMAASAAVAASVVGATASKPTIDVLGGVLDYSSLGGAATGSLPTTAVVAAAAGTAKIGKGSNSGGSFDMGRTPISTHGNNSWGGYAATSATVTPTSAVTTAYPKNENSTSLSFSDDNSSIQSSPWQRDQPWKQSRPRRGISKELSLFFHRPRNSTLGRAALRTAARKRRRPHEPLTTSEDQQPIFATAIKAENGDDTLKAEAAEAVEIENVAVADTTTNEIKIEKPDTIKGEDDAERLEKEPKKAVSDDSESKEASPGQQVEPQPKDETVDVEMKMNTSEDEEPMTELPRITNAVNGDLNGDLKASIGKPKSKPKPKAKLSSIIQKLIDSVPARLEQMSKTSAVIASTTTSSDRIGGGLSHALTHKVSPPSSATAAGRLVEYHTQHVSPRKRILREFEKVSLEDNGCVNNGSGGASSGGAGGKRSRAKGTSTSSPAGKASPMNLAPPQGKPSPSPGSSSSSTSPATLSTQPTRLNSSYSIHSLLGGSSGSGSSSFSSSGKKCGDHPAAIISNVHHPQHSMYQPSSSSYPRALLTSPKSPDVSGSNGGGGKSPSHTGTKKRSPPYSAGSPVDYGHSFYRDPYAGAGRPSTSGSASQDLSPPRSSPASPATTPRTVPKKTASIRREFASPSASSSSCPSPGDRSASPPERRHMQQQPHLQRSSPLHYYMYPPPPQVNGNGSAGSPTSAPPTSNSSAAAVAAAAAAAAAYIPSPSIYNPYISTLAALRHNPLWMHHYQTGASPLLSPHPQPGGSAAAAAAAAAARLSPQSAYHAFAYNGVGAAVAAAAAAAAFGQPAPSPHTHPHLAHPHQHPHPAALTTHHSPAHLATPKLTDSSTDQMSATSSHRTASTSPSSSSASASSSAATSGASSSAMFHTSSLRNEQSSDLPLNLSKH

[3] = target: T3, Hairless HLD mutant (L235D), full-length pEG-HLD bait (Drosophila melanogaster) (UniProt Q02308); experiment: as above
T3 sequence: T1 sequence with L235D

[4] = target: T1, Hairless (H) wild type, full-length pEG-H bait (Drosophila melanogaster); experiment: two-hybrid
[5] = target: T2, Hairless HdNT mutant, full-length pEG-HdNT bait (Drosophila melanogaster); experiment: two-hybrid
[6] = target: T3, Hairless HLD mutant (L235D), full-length pEG-HLD bait (Drosophila melanogaster); experiment: two-hybrid

Measured: binding

C-terminal binding protein (CtBP), VP16-CtBP prey (from UniProt O46036 1-476)
binds: [1] | [2] | [3]

Groucho (Gro), VP16-Gro prey (from UniProt P16371 1-730)
binds: [4] | [5] | [6]
